Screening data

Source: PubChem BioAssay AID504749 (NCATS, 2011).

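Malaria parasite (P. falciparum) lines kept in red blood cells; parasite DNA is measured by SYBR Green fluorescence after lysis, 72 h after compound addition.
Each compound was titrated across a series from about 0.000037 to 29 µM.
The number is the fitted AC50, the concentration giving a half-maximal change in signal; a lower value means higher potency, whether the curve shows a decrease or an increase.
Calls follow the curve class and fit quality: every row here is inconclusive, covering signal-raising curves and weak, poorly fitted, partial or highest-dose-only inhibition curves.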

Values are in µM.
Every entry below has the call inconclusive.
Only part of the assay is shown, chiefly results filed as inconclusive.
Potencies fitted to partial, single-point or poorly fitting curves are rough.

- CCC1=C[C@@H]2CN(C1)Cc1c([nH]c3ccccc13)[C@@](C(=O)OC)(c1cc3c(cc1OC)N(C)[C@@H]1[C@@](O)(C(=O)OC)[C@H](OC(C)=O)[C@]4(CC)C=CCN5CC[C@]31[C@@H]54)C2 [FAB9] : fitted potency 3.981 µM (inhibitor, partial curve)
- C=C1N[C@]2(C(=O)COC(C)=O)[C@@H](C[C@H]3[C@@H]4CCC5=CC(=O)C=C[C@]5(C)[C@H]4[C@@H](O)C[C@@]32C)O1 [CP268] : fitted potency 13.46 µM (inhibitor, single point)
- C=C1N[C@]2(C(=O)COC(C)=O)[C@@H](C[C@H]3[C@@H]4CCC5=CC(=O)C=C[C@]5(C)[C@H]4[C@@H](O)C[C@@]32C)O1 [CP305] : fitted potency 13.46 µM (inhibitor, single point)
- C=C1N[C@]2(C(=O)COC(C)=O)[C@@H](C[C@H]3[C@@H]4CCC5=CC(=O)C=C[C@]5(C)[C@H]4[C@@H](O)C[C@@]32C)O1 [7G8] : fitted potency 8.912 µM (inhibitor, partial curve)
- C=C1N[C@]2(C(=O)COC(C)=O)[C@@H](C[C@H]3[C@@H]4CCC5=CC(=O)C=C[C@]5(C)[C@H]4[C@@H](O)C[C@@]32C)O1 [DFO2036] : fitted potency 11.22 µM (inhibitor, partial curve)
- C=C1N[C@]2(C(=O)COC(C)=O)[C@@H](C[C@H]3[C@@H]4CCC5=CC(=O)C=C[C@]5(C)[C@H]4[C@@H](O)C[C@@]32C)O1 [P93_24] : fitted potency 14.13 µM (inhibitor, single point)
- C=C1N[C@]2(C(=O)COC(C)=O)[C@@H](C[C@H]3[C@@H]4CCC5=CC(=O)C=C[C@]5(C)[C@H]4[C@@H](O)C[C@@]32C)O1 [CP194] : fitted potency 12 µM (inhibitor, partial curve)
- C=C1N[C@]2(C(=O)COC(C)=O)[C@@H](C[C@H]3[C@@H]4CCC5=CC(=O)C=C[C@]5(C)[C@H]4[C@@H](O)C[C@@]32C)O1 [CP203] : fitted potency 13.46 µM (inhibitor, partial curve, poor fit)
- C=C1N[C@]2(C(=O)COC(C)=O)[C@@H](C[C@H]3[C@@H]4CCC5=CC(=O)C=C[C@]5(C)[C@H]4[C@@H](O)C[C@@]32C)O1 [DIV30] : fitted potency 19.01 µM (inhibitor, single point)
- C=C1N[C@]2(C(=O)COC(C)=O)[C@@H](C[C@H]3[C@@H]4CCC5=CC(=O)C=C[C@]5(C)[C@H]4[C@@H](O)C[C@@]32C)O1 [CP191] : fitted potency 10 µM (inhibitor, single point)
- C=C1N[C@]2(C(=O)COC(C)=O)[C@@H](C[C@H]3[C@@H]4CCC5=CC(=O)C=C[C@]5(C)[C@H]4[C@@H](O)C[C@@]32C)O1 [CP217] : fitted potency 10 µM (inhibitor, single point)
- C=C1N[C@]2(C(=O)COC(C)=O)[C@@H](C[C@H]3[C@@H]4CCC5=CC(=O)C=C[C@]5(C)[C@H]4[C@@H](O)C[C@@]32C)O1 [TAB165] : fitted potency 11.22 µM (inhibitor, partial curve)
- C=C1N[C@]2(C(=O)COC(C)=O)[C@@H](C[C@H]3[C@@H]4CCC5=CC(=O)C=C[C@]5(C)[C@H]4[C@@H](O)C[C@@]32C)O1 [CP269] : fitted potency 15.1 µM (inhibitor, partial curve, poor fit)
- C=C1N[C@]2(C(=O)COC(C)=O)[C@@H](C[C@H]3[C@@H]4CCC5=CC(=O)C=C[C@]5(C)[C@H]4[C@@H](O)C[C@@]32C)O1 [CP211] : fitted potency 15.1 µM (inhibitor, single point)
- C=C1N[C@]2(C(=O)COC(C)=O)[C@@H](C[C@H]3[C@@H]4CCC5=CC(=O)C=C[C@]5(C)[C@H]4[C@@H](O)C[C@@]32C)O1 [AA1029] : fitted potency 11.22 µM (inhibitor, single point)
- Clc1cccc(C(c2ccc3nc[nH]c3c2)n2ccnc2)c1 (stereo unspecified) [CP192] : fitted potency 19.01 µM (inhibitor, single point)
- Clc1cccc(C(c2ccc3nc[nH]c3c2)n2ccnc2)c1 (stereo unspecified) [CP217] : fitted potency 11.22 µM (inhibitor, single point)
- Clc1cccc(C(c2ccc3nc[nH]c3c2)n2ccnc2)c1 (stereo unspecified) [CP252] : fitted potency 11.22 µM (inhibitor, single point)
- Clc1cccc(C(c2ccc3nc[nH]c3c2)n2ccnc2)c1 (stereo unspecified) [FAB9] : fitted potency 17.78 µM (inhibitor, single point)
- Clc1cccc(C(c2ccc3nc[nH]c3c2)n2ccnc2)c1 (stereo unspecified) [CP250] : fitted potency 17.78 µM (inhibitor, single point)
- Clc1cccc(C(c2ccc3nc[nH]c3c2)n2ccnc2)c1 (stereo unspecified) [CP315] : fitted potency 13.46 µM (inhibitor, single point)
- Clc1cccc(C(c2ccc3nc[nH]c3c2)n2ccnc2)c1 (stereo unspecified) [CP329] : fitted potency 15.1 µM (inhibitor, single point)
- COc1ccc2cc([C@H](C)C(=O)O)ccc2c1 [W2] : fitted potency 8.087 µM (inhibitor, single point)
- COc1ccc2cc([C@H](C)C(=O)O)ccc2c1 [CP260] : fitted potency 10 µM (inhibitor, single point)
- COc1ccc2cc([C@H](C)C(=O)O)ccc2c1 [ICS] : fitted potency 10 µM (inhibitor, single point)

Some entries from above, unchanged:

For C=C1N[C@]2(C(=O)COC(C)=O)[C@@H](C[C@H]3[C@@H]4CCC5=CC(=O)C=C[C@]5(C)[C@H]4[C@@H](O)C[C@@]32C)O1 [DFO2036] the result was fitted potency 11.22 µM (inhibitor, partial curve).
For C=C1N[C@]2(C(=O)COC(C)=O)[C@@H](C[C@H]3[C@@H]4CCC5=CC(=O)C=C[C@]5(C)[C@H]4[C@@H](O)C[C@@]32C)O1 [DIV30] the result was fitted potency 19.01 µM (inhibitor, single point).